Data on four sequences can be found in US20150353614.

In data set [1] the target is T1, AC (AraC linker and DNA-binding domain) (Escherichia coli) (UniProt P0A9E0).
T1 sequence (looked up, limits assumed): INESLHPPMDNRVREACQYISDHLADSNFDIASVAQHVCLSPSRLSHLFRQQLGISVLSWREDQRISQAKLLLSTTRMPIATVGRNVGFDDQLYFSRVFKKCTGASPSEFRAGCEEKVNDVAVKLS
Nature of the data set: activity in cells. The settings on record: PBAD, no inducer; 0.11 with 10 mM mevalonate; normalized to IA; protein in cells; only the site is given.

In data set [2] the test system is IA (Idi-AraC DBD chimera) (Escherichia coli). Nature of the data set: activity in cells. The settings on record: no mevalonate, protein in cells, variant of I1I2 in PBAD, only the site is given.
For data set [3] the test system is unchanged. Nature of the data set: EMSA. The conditions noted are these: 0-10 nM IA, 20 nM DNA, 100 mM KCl, pH 7.4, RT; shifted band weaker with 10 uM IPP; purified recombinant protein; label: Cy5. A general note: Mobility shift assays separate free from complexed probe on a gel.

For some of these results: Tags and fusion partners may be left off the protein sequences shown. For some of these results: For at least one entry, the source does not settle the construct or the ends of the probe.

Turning to “TAGCATTTTTATCCATAAGATTAGCGGATCCTACCTGA (double strand) [I1I2 in PBAD]”, the activity on this sequence in data set [1] was found to be 0.19 relative RFP.
Sequence “TAGCATTTTTATCCATAAGATTAGCATTTTTATCCATA (double strand) [I1I1 in PBAD]” returned an activity on this sequence in data set [2] (0.13 with 10 mM mevalonate) of 0.1 relative RFP.
Turning to “TAGCATTTTTATCCATAAGATTAGCGGATCCTACCTGA (double strand) [I1I2]”, the binding result in data set [3] is reported as “binds”.
The sequence “TAGCGGATCCTACCTGAAGATTAGCGGATCCTACCTGA (double strand) [I2I2 in PBAD]” came in with an activity on this sequence in data set [2] (0.11 with 10 mM mevalonate) of 0.14 relative RFP.
